Measurements reported in PubChem BioAssay AID504805 (Drosophila RNAi Screening Center, 2011)

Purpose: 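Knock-downs that cause poly(A) RNA to build up in the nucleus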 (primary screen)
Cells: Drosophila S2R+ cells
Knock-down reagent: long dsRNA against Drosophila genes, 0.25 µg dsRNA per well
Duration: 4 days
Measurement: 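Microscope images of cells stained for poly(A) RNA with a fluorescent oligo-dT probe and for DNA, assessed visually, with a phenotype description given for each replicate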
This is not the whole library: the list holds selected reagents. 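Phenotypes are words from visual inspection of images, not measured scores.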 A plus sign joins genes that one reagent is predicted to hit. No sequences are given here.

gene	amplicon	phenotype, replicate 1	phenotype, replicate 2
ClpX	DRSC15592	poly(A) RNA held back in the nucleus	
mim	DRSC05013	poly(A) RNA held back in the nucleus	
dUTPase	DRSC01998	poly(A) RNA held back in the nucleus	
pcx	DRSC18188	poly(A) RNA held back in the nucleus	
pcx	DRSC18190	poly(A) RNA held back in the nucleus	
lola	DRSC05220	poly(A) RNA held back in the nucleus	
eIF5	DRSC20165	poly(A) RNA held back in the nucleus	
Lim1	DRSC18677	poly(A) RNA held back in the nucleus	
Tis11	DRSC20293	poly(A) RNA held back in the nucleus	
CG12237	DRSC19449	poly(A) RNA held back in the nucleus	
CG9368	DRSC11067	poly(A) RNA held back in the nucleus	
Top3beta	DRSC18724	poly(A) RNA held back in the nucleus	
Syt7	DRSC17130	poly(A) RNA held back in the nucleus	
mew	DRSC20352	poly(A) RNA held back in the nucleus	
Rrp47	DRSC20124	poly(A) RNA held back in the nucleus	
Spt6	DRSC18836	poly(A) RNA held back in the nucleus	
Fmo-2	DRSC04983	poly(A) RNA held back in the nucleus	
swm	DRSC21831	poly(A) RNA held back in the nucleus	poly(A) RNA held back in the nucleus
CG2321	DRSC15439	poly(A) RNA held back in the nucleus	
CG8924	DRSC20122	poly(A) RNA held back in the nucleus	poly(A) RNA held back in the nucleus
RabGGTb	DRSC00804	poly(A) RNA held back in the nucleus	
Ctu1	DRSC07069	poly(A) RNA held back in the nucleus	
Brr2	DRSC10559	poly(A) RNA held back in the nucleus	poly(A) RNA held back in the nucleus
CG3857	DRSC18542	poly(A) RNA held back in the nucleus	
CG9514	DRSC20190	poly(A) RNA held back in the nucleus	
CG8833	DRSC11050	poly(A) RNA held back in the nucleus	
CG11035	DRSC14287	poly(A) RNA held back in the nucleus	
Sodq	DRSC15924	poly(A) RNA held back in the nucleus	
Cap-H2	DRSC14908	poly(A) RNA held back in the nucleus	
B-H2	DRSC19335	poly(A) RNA held back in the nucleus	poly(A) RNA held back in the nucleus
Atx2	DRSC15727	poly(A) RNA held back in the nucleus	
CG5608	DRSC15841	poly(A) RNA held back in the nucleus	
mTerf3	DRSC11759	poly(A) RNA held back in the nucleus	
RpL39	DRSC04651	RNA gathered at the nuclear rim	
CycE	DRSC03296	poly(A) RNA held back in the nucleus	poly(A) RNA held back in the nucleus
eyg	DRSC11344	rounded cells with compacted RNA	
CG8006	DRSC10949	poly(A) RNA held back in the nucleus	
CG31787	DRSC01632	poly(A) RNA held back in the nucleus	
asf1	DRSC11324	poly(A) RNA held back in the nucleus	
CG4592	DRSC02761		poly(A) RNA held back in the nucleus
RpS11	DRSC22700	poly(A) RNA held back in the nucleus	
Ilp4	DRSC10701	poly(A) RNA held back in the nucleus	
CG14641	DRSC12227	poly(A) RNA held back in the nucleus	poly(A) RNA held back in the nucleus
CG5968	DRSC02916	poly(A) RNA held back in the nucleus	
Orct2	DRSC14613	poly(A) RNA held back in the nucleus	
sens	DRSC09263	poly(A) RNA held back in the nucleus	poly(A) RNA held back in the nucleus
CG10479	DRSC09733	poly(A) RNA held back in the nucleus	
Uxs	DRSC10941	poly(A) RNA held back in the nucleus	
Polr2A	DRSC20280	poly(A) RNA held back in the nucleus	
Os-C	DRSC16778	poly(A) RNA held back in the nucleus	
Sulf1	DRSC16874	poly(A) RNA held back in the nucleus	
bs	DRSC04676	poly(A) RNA held back in the nucleus	
CG3902	DRSC10387	poly(A) RNA held back in the nucleus	
CSN4	DRSC07350	poly(A) RNA held back in the nucleus	
Cse1	DRSC03287	poly(A) RNA held back in the nucleus	poly(A) RNA held back in the nucleus
CG9801	DRSC16568	poly(A) RNA held back in the nucleus	
Dph3	DRSC14923	poly(A) RNA held back in the nucleus	poly(A) RNA held back in the nucleus
Lim3	DRSC22650	poly(A) RNA held back in the nucleus	
Smu1	DRSC15803	poly(A) RNA held back in the nucleus	poly(A) RNA held back in the nucleus
CG3918	DRSC18331	poly(A) RNA held back in the nucleus	poly(A) RNA held back in the nucleus
Uhg2 + snoRNA:Me18S-G1620 + snoRNA:U14:30Ea	DRSC01100	poly(A) RNA held back in the nucleus	
pum	DRSC12726	poly(A) RNA held back in the nucleus	poly(A) RNA held back in the nucleus
svp	DRSC15311	poly(A) RNA held back in the nucleus	
RpL36	DRSC18708	poly(A) RNA held back in the nucleus	
CG43347	DRSC18446	poly(A) RNA held back in the nucleus	
CG43347	DRSC22656	poly(A) RNA held back in the nucleus	
ths	DRSC06153	poly(A) RNA held back in the nucleus	poly(A) RNA held back in the nucleus
Ddx56	DRSC20567	poly(A) RNA held back in the nucleus	
Nup154	DRSC03384	poly(A) RNA held back in the nucleus	
CG12964	DRSC06266	poly(A) RNA held back in the nucleus	poly(A) RNA held back in the nucleus
CG9706	DRSC11095	poly(A) RNA held back in the nucleus	
osk	DRSC17023	poly(A) RNA held back in the nucleus	

Part of the list above in another layout:
| gene | amplicon | phenotype, replicate 1 | phenotype, replicate 2 |
| --- | --- | --- | --- |
| ths | DRSC06153 | poly(A) RNA held back in the nucleus | poly(A) RNA held back in the nucleus |
| Ddx56 | DRSC20567 | poly(A) RNA held back in the nucleus | – |
| Nup154 | DRSC03384 | poly(A) RNA held back in the nucleus | – |
| CG12964 | DRSC06266 | poly(A) RNA held back in the nucleus | poly(A) RNA held back in the nucleus |
| CG9706 | DRSC11095 | poly(A) RNA held back in the nucleus | – |
| osk | DRSC17023 | poly(A) RNA held back in the nucleus | – |
